# Out of some 53,000 sequences screened, about 3,700 (7%) were called active.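 The calls were made as follows: active = gene knockdowns whose robust z-score for IL-1 alpha signal is at least 2 or at most -2, so actives lie on both sides; inactive = the rest.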 The list shows a part of the results.
# Experiment: Components of the Cytosolic LPS Sensing Pathway: Gene Identification via Genome-wide siRNA Screen;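 also: robust z of the log signal after scaling to non-targeting control siRNA wells of the plate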
# Conditions: RAW264.7 macrophages, IL-1a HTRF, actives lie on both sides, screened at 100 nM (by protocol), cells primed 5 h with Pam3CSK4 first
# Method in brief: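 Three distinct siRNAs per gene were tested singly at 100 nM in RAW264.7 macrophages. Following Pam3CSK4 priming and 24 hour LipidA transfection, IL-1a secretion was read by HTRF.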
row,Sequence,z-score
1,GGACCUUCCAGCAAGAUUUTT against Rnf13,inactive: 0.28
2,GGAACUAGCCGUGAUGAUGTT against Htr1f,inactive: -0.929
3,GCAUCUACCAUGGAAAUAUTT against Clcn7,inactive: 0.053
4,GGUGAACAUGUUUACAAACTT against Btf3,inactive: 1.16
5,GGAGAAAUUCAUGACCAUGTT against Slc45a3,inactive: 1.82
6,GGCCAUCCGCAUUUUUUCCTT against Mex3b,inactive: -0.34
7,GGAAUUGAAACACAUCUCUTT against Sntb1,inactive: -0.904
8,GGAUAUAAUAUCCUCGUAUTT against Sel1l3,inactive: 0.199
9,CCACGAGAACCUCAAGGGUTT against Ckm,inactive: -0.15
10,GGACGAGUCACACUUUGGATT against Cdyl2,inactive: -0.328
11,GGAUUUCGUCGAAAAGAAUTT against Mical3,inactive: -1.76
12,GGUAGCCAAUGGGAAAAAATT against Cnot6l,inactive: -0.69
13,GGACCUAAGCAUUUUACAUTT against Traf2,inactive: -0.143
14,GGAAUGUGUUAAAAGCACUTT against Fign,inactive: 0.369
15,CGACAAUGUGCCGAUGUUGTT against Pcdha8,inactive: -0.0891
16,CCAGUUGUGCAAUCAACAATT against Fam98c,inactive: -0.367
17,GGUCUUUGUACAUCAAUGUTT against Zfp677,inactive: -0.241
18,GGCAAAAGUACUGAUCACATT against Pcdhga7,inactive: -0.378
19,GGUACAAUACAUUCAAACATT against Serpinb6c,inactive: -0.82
20,GGAAACCAGGAAUGUUAAUTT against Mrps2,inactive: 0.312
21,GGACUUGUGGCUGAAAACCTT against Slc22a7,inactive: 0.173
22,GGAUUUCAAUGAAACUCAGTT against Antxr1,inactive: 0.859
23,CCAUAUUACAACAACUCUCTT against Sytl4,inactive: -0.0818
24,GGACAAAGGGAUAAUGCUGTT against Aldoc,inactive: 0.735
25,GGACCAAACCUAUCAAAAATT against Reep2,inactive: -1.12
26,GGUUGUCACAACAACAAUGTT against Oit3,inactive: -0.971
27,GCCGCAUCCACACAUCUCUTT against Daam2,inactive: 0.465
28,GGUGACUUCGGAGAAAAGGTT against Sncaip,inactive: 0.257
29,GGACAGCUAUUUGUUUUACTT against Azi2,inactive: -0.0916

# Exported with tabs: entries from further up
row	Sequence	z-score
6	GGCCAUCCGCAUUUUUUCCTT against Mex3b	inactive: -0.34
20	GGAAACCAGGAAUGUUAAUTT against Mrps2	inactive: 0.312

# From PubChem BioAssay AID1508600 (Functional Genomics Laboratory (NCATS/FGL), 2020)
